Data reported in publication PMC10077477.
These are yes or no findings as the source states them, for the method shown. Binding seen in cells or lysates may run through a third protein. Some binding calls cover weakened binding; strength is not graded here. Sequences can lack the tags named with a protein.

By UniProt entry, the sequences of proteins in these tests, tags left out. Where a name states a change or a piece, a line headed by the entry shows the natural chain unless it says otherwise.
UniProt O00506: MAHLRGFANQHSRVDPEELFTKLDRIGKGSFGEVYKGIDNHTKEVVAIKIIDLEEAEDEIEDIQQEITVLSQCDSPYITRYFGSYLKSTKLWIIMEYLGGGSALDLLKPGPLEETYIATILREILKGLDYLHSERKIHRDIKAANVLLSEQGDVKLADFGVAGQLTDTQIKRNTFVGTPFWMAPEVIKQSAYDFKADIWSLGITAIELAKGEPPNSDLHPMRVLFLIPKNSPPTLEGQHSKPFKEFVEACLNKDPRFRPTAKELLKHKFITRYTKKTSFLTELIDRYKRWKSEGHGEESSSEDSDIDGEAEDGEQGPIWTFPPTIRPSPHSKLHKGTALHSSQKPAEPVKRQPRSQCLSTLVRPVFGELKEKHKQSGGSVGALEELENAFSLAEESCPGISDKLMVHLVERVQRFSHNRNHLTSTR
UniProt Q9BSQ5: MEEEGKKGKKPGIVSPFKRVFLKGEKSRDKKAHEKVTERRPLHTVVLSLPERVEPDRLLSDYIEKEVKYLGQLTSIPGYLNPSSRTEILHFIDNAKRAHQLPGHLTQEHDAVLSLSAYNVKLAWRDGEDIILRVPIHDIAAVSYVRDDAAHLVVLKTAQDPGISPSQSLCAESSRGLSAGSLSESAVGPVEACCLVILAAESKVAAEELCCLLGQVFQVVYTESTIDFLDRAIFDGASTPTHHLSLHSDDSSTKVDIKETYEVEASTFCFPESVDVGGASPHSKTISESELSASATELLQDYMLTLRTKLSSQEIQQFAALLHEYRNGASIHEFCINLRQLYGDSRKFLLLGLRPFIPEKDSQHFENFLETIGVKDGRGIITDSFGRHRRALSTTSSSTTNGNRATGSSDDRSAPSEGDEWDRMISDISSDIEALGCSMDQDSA

What was measured:
[1] = biological target: Flag-tagged N-STK25(1-302)/C-CCM2(290-445) (UniProt O00506); experiment: co-IP; HEK293 cells transfected for 48 hours, lysed with immunoprecipitation assay buffer, pulldown with anti-Flag antibody affinity gel, eluted proteins analysed by Western blot
Flag-CCM2 = Flag-CCM2 (UniProt Q9BSQ5); experiment: as above

- binding [1]: binds
- binding (Flag-CCM2): binds
B1: Myc-MEKK3 (enzyme, UniProt Q99759 1-626)
chain: MDEQEALNSIMNDLVALQMNRRHRMPGYETMKNKDTGHSNRQSDVRIKFEHNGERRIIAFSRPVKYEDVEHKVTTVFGQPLDLHYMNNELSILLKNQDDLDKAIDILDRSSSMKSLRILLLSQDRNHNSSSPHSGVSRQVRIKASQSAGDINTIYQPPEPRSRHLSVSSQNPGRSSPPPGYVPERQQHIARQGSYTSINSEGEFIPETSEQCMLDPLSSAENSLSGSCQSLDRSADSPSFRKSRMSRAQSFPDNRQEYSDRETQLYDKGVKGGTYPRRYHVSVHHKDYSDGRRTFPRIRRHQGNLFTLVPSSRSLSTNGENMGLAVQYLDPRGRLRSADSENALSVQERNVPTKSPSAPINWRRGKLLGQGAFGRVYLCYDVDTGRELASKQVQFDPDSPETSKEVSALECEIQLLKNLQHERIVQYYGCLRDRAEKTLTIFMEYMPGGSVKDQLKAYGALTESVTRKYTRQILEGMSYLHSNMIVHRDIKGANILRDSAGNVKLGDFGASKRLQTICMSGTGMRSVTGTPYWMSPEVISGEGYGRKADVWSLGCTVVEMLTEKPPWAEYEAMAAIFKIATQPTNPQLPSHISEHGRDFLRRIFVEARQRPSAEELLTHHFAQLMY
